From the supplement of paper PMC12819154, “High-throughput peptide-centric local stability assay extends protein–ligand identification to membrane proteins, tissues and bacteria” (Nature Structural & Molecular Biology, 2025) come the findings set out here.

Sequences of proteins named here, by UniProt entry; tags and fusion partners are left off. A change or cut given only in a name is not applied to a line headed by its entry.
UniProt Q05932: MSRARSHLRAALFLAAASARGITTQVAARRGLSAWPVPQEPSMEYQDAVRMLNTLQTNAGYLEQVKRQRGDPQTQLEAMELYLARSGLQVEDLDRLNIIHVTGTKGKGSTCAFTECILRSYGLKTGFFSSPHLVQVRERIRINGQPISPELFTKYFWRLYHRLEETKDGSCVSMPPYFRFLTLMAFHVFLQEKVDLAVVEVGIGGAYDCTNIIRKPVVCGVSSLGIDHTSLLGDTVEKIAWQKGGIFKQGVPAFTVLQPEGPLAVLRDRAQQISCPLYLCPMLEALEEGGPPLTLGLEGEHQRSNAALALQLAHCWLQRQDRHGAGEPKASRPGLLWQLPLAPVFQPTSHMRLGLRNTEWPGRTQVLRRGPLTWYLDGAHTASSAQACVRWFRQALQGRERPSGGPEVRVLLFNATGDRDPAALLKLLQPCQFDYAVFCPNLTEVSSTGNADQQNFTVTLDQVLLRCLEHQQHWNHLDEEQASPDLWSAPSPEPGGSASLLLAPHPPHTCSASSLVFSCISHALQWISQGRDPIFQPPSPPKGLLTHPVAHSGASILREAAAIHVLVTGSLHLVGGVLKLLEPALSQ
UniProt Q00534, whole entry: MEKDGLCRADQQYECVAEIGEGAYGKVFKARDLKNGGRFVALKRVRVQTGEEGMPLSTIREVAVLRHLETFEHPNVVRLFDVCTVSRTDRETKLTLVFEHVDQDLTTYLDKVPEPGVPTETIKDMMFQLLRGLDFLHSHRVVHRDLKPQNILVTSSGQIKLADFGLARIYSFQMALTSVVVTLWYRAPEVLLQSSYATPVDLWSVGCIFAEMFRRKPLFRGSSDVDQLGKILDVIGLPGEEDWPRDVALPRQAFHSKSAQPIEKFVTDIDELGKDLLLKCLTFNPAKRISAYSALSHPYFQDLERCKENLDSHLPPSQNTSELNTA
UniProt Q02218: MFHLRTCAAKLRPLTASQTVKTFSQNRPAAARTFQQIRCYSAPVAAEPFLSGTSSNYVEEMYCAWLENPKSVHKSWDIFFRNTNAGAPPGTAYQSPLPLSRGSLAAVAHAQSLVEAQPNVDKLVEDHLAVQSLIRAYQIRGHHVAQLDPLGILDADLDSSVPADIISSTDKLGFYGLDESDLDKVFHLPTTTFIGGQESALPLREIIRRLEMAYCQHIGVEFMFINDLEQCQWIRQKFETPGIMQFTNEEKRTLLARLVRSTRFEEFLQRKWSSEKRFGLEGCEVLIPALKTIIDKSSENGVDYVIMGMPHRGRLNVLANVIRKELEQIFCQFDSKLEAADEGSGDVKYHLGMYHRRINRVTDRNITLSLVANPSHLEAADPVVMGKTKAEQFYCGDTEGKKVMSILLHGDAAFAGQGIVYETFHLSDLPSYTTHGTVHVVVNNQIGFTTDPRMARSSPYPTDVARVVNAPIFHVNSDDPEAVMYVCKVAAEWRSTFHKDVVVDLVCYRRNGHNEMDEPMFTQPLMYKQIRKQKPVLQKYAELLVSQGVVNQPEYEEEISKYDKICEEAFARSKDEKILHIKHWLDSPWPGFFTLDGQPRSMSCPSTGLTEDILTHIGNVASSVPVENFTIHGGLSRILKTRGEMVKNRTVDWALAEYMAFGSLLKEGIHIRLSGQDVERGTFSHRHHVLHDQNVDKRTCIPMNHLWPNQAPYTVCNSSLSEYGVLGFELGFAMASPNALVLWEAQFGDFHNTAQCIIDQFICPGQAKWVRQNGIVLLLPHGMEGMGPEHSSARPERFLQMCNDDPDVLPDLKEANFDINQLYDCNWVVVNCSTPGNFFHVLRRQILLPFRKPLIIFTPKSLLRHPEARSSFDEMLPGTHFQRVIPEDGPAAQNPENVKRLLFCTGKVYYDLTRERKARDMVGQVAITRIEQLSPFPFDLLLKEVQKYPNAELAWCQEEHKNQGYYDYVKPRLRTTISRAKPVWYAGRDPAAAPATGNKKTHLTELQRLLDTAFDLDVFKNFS
UniProt P86791: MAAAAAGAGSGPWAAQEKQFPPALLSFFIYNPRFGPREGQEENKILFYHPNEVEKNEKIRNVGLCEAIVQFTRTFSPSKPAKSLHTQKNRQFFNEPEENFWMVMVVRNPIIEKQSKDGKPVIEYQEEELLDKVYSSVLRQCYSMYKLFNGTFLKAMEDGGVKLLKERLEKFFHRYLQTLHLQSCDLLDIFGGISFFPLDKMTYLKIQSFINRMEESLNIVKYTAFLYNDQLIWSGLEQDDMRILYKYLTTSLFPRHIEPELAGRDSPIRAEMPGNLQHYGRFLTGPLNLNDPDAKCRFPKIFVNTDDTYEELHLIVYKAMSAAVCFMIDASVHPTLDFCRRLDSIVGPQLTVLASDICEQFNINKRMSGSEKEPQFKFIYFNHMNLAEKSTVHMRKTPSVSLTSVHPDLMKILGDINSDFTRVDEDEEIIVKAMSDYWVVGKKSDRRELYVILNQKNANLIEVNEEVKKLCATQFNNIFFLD
UniProt Q12906, whole entry: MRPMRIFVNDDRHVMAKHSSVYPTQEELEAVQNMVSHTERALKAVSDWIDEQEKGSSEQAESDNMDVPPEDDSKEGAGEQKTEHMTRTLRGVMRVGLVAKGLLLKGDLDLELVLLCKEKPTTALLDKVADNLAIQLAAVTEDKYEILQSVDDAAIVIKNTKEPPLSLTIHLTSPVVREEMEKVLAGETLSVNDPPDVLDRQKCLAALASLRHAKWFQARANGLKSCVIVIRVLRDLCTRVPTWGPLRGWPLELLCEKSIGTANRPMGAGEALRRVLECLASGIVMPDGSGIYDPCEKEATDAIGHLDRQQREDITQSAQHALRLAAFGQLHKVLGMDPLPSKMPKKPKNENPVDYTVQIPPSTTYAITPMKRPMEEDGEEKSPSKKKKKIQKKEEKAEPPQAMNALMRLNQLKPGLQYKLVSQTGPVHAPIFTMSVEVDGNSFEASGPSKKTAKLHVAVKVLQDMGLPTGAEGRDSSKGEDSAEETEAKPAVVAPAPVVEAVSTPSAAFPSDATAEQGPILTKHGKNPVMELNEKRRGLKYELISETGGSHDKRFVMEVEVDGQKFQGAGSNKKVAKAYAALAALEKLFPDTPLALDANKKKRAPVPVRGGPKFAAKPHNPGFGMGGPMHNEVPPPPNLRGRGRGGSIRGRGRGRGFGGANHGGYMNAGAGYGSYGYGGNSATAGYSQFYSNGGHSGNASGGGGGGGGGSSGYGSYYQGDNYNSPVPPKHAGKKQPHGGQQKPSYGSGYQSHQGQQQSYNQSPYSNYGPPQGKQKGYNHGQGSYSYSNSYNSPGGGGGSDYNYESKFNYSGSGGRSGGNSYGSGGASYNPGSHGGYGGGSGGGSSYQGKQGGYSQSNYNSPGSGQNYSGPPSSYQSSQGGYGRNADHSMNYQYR
UniProt Q06546: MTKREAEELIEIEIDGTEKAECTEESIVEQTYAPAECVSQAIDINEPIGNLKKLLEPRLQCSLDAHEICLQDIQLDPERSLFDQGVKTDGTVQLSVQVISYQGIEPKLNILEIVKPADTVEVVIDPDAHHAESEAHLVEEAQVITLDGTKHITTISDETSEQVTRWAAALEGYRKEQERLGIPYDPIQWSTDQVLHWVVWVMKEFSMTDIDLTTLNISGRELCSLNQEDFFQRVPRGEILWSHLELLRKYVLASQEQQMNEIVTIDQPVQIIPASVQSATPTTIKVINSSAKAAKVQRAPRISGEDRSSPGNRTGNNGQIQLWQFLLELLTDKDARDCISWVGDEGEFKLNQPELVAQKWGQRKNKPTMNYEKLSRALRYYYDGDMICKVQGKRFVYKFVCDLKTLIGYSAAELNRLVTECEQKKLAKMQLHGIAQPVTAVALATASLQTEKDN
UniProt Q01432: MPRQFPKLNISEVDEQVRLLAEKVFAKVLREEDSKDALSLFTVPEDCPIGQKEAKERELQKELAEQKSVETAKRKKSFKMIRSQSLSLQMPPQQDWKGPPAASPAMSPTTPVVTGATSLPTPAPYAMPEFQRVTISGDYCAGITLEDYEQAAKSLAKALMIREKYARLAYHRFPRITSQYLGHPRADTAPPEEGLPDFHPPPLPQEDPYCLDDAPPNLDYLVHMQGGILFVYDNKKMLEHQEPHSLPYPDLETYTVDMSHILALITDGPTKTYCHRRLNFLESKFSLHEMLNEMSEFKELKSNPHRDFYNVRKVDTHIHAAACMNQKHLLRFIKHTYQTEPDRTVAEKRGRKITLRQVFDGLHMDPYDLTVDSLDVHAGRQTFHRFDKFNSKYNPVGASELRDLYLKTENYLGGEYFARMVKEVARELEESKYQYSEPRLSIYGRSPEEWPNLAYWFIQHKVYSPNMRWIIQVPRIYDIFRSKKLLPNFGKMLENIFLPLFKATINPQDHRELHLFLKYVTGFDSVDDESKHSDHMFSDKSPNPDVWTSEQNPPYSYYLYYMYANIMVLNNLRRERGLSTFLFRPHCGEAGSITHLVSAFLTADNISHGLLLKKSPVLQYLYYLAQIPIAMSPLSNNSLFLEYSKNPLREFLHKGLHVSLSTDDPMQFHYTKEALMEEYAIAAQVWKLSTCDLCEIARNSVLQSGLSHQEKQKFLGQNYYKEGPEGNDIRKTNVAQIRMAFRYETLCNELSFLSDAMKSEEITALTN
UniProt Q01970, whole entry: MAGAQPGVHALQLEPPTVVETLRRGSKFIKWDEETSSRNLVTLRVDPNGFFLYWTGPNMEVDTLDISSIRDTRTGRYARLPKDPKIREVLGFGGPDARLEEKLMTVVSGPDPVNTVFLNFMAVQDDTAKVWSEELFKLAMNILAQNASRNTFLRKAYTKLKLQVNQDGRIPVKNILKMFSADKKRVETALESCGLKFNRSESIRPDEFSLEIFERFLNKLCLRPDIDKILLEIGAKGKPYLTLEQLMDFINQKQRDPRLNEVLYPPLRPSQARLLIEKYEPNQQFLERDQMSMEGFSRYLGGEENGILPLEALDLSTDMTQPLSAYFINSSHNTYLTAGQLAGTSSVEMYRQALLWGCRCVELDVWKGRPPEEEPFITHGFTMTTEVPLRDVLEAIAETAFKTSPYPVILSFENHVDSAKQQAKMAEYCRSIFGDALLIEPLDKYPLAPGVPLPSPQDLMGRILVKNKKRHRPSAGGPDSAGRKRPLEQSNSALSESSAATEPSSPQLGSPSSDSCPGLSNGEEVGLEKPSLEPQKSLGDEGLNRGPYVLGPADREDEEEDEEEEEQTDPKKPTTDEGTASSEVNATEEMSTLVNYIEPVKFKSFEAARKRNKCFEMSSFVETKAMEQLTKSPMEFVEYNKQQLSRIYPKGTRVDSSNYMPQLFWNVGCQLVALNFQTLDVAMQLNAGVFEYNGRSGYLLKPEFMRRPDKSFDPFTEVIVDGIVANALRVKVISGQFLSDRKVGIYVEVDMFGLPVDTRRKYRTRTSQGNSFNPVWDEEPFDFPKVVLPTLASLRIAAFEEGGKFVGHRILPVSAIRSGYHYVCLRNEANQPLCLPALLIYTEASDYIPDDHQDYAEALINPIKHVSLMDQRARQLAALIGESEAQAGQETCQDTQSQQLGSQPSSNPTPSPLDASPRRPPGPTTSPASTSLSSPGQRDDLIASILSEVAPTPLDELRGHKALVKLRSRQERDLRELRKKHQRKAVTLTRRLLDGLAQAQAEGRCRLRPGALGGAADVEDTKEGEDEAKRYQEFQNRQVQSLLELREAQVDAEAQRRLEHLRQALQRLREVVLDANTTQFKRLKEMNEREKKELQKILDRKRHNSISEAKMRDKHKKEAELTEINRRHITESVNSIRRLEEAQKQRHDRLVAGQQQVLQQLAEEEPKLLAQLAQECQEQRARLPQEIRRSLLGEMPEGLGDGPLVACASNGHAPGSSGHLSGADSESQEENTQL
UniProt P84101: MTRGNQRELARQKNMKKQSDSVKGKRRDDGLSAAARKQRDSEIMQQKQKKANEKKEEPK
UniProt P84090, whole entry, looked up: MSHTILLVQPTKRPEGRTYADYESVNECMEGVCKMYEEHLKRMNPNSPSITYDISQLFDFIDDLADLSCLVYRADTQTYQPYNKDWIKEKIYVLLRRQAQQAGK
UniProt Q01581: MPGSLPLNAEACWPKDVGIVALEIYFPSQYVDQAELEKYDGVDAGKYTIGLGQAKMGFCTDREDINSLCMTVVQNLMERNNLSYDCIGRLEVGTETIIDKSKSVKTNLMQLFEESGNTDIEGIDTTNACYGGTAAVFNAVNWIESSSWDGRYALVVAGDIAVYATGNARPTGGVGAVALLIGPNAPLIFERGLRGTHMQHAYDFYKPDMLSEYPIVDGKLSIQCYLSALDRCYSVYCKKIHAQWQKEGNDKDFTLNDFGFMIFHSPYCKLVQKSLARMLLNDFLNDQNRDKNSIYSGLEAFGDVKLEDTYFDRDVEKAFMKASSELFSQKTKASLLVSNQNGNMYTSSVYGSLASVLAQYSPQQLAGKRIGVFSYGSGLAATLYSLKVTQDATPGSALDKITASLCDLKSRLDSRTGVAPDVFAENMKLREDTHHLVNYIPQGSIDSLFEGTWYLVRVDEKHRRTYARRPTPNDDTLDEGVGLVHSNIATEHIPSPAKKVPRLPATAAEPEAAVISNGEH
UniProt P83876: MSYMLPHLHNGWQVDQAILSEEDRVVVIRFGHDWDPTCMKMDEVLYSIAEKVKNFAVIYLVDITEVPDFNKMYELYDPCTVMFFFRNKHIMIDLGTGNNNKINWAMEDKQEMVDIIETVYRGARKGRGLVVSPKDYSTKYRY

Some of the results follow. Most values lie at the level of the controls, where differences are scatter.

Compound in the assay: Cc1nc(Nc2ncc(C(=O)Nc3c(C)cccc3Cl)s2)cc(N2CCN(CCO)CC2)n1 [dasatinib]
Briefly: log2 fold change of tryptic peptide abundance, ligand vs vehicle (limited proteolysis) (log2 ratio); higher = more trypsin-susceptible (destabilized). As to conditions: ligand concentration: 5 uM; sample: K562 cleared lysate.
Consider “DHX9 (peptide sequence: LQISHEAAACITGLR, peptide start residue: 1090) (UniProt Q08211)”, for which the log2 fold change was determined as 0.112. Then “FPGS (peptide sequence: VLLFNATGDRDPAALLK, peptide start residue: 410) (UniProt Q05932)”, with 0.154; and “UniProt Q08623 (peptide sequence: FSPPPAMEK, peptide start residue: 162)”, with -0.0708.

As for “CDK6 (peptide sequence: CLTFNPAK, peptide start residue: 280) (UniProt Q00534)”, the log2 fold change came out at 0.113. With “OGDH (peptide sequence: QILLPFR, peptide start residue: 845) (UniProt Q02218)” the figure was 1.81. On to “SREBF2 (peptide sequence: GSSSGAVDPSVQR, peptide start residue: 78) (UniProt Q12772)”, for which the log2 fold change is 0.102.

For “UniProt P86791 (peptide sequence: HIEPELAGR, peptide start residue: 256)”, the log2 fold change was 0.283. Then “GTF2B (peptide sequence: APDLFPTDFK, peptide start residue: 296) (UniProt Q00403)”, with -0.225. Then “ILF3 (peptide sequence: DLCTRVPTWGPLR, peptide start residue: 235) (UniProt Q12906)”, with 0.436; and “ALDH6A1 (peptide sequence: WLPELVEHAK, peptide start residue: 332) (UniProt Q02252)”, with -0.311.

Consider “GABPA (peptide sequence: YYYDGDMICKVQGK, peptide start residue: 380) (UniProt Q06546)”, for which the log2 fold change is -0.2.

“UniProt Q05519 (peptide sequence: SKTPPKSYSTAR, peptide start residue: 323)”: the log2 fold change amounted to 0.292. With “AMPD3 (peptide sequence: WIIQVPR, peptide start residue: 469) (UniProt Q01432)” the figure was 0.23; with “UBE3A (peptide sequence: LEMIAMENPADLKK, peptide start residue: 540) (UniProt Q05086)”, 0.382; with “UniProt Q06732 (peptide sequence: SSLTVHHR, peptide start residue: 705)”, 0.26. Take “MVK (peptide sequence: LQPHSNGK, peptide start residue: 41) (UniProt Q03426)”: the log2 fold change was -0.295. For the target “PRDM2 (peptide sequence: DFGKPSDGK, peptide start residue: 752) (UniProt Q13029)”, the log2 fold change was found to be 0.508. For the target “PLCB3 (peptide sequence: RYQEFQNR, peptide start residue: 1030) (UniProt Q01970)”, the log2 fold change is -1.32. With “UniProt P84101 (peptide sequence: DSEIMQQK, peptide start residue: 40)” the figure was 0.103.

For “GOLGA3 (peptide sequence: QIEELQQEAR, peptide start residue: 959) (UniProt Q08378)”, the log2 fold change is 0.156.

As to “PLCB2 (peptide sequence: QMTENLER, peptide start residue: 1089) (UniProt Q00722)”, the log2 fold change stood at 0.397. As for “CDR2 (peptide sequence: QHFVYDHVFAEK, peptide start residue: 169) (UniProt Q01850)”, the log2 fold change is -0.31. With “UniProt P84090 (peptide sequence: MYEEHLK, peptide start residue: 35)” the figure was 0.185; with “HMGCS1 (peptide sequence: NNLSYDCIGR, peptide start residue: 80) (UniProt Q01581)”, -0.335; with “UniProt Q0VD83 (peptide sequence: ETEDEEAEADR, peptide start residue: 724)”, 0.781. With “BNIP2 (peptide sequence: QDEPKNEQ, peptide start residue: 307) (UniProt Q12982)” the figure was 0.505; with “UniProt P83876 (peptide sequence: FGHDWDPTCMK, peptide start residue: 30)”, 0.322; with “TIAL1 (peptide sequence: DTSNHFHVFVGDLSPEITTEDIK, peptide start residue: 92) (UniProt Q01085)”, 0.0934. Then “RBM10 (peptide sequence: SEAEQKLPLGTR, peptide start residue: 241) (UniProt P98175)”, with -0.564.
